Positions count from the first letter of the chain named. These are yes or no findings as the source states them, for the method shown. Some binding calls cover weakened binding; strength is not graded here.
Columns and labels:
[1] = target: human Galectin-9 CRD2 (residues 218-355) (human) (UniProt O00182); assay: SPR, hGalectin-9 CRD2 immobilized, antibody injected
[2] = target: human Galectin-9 CRD2 (residues 218-355) (human) (UniProt O00182); assay: bead assay, flow cytometry: G9.2-17 varied up to 1000 nM with 200 nM galectin-9 CRD2; read-out is CRD2 bound to MuSK ECR on beads; the antibody raises and does not block this binding
[3] = target: human Galectin-9 CRD2 (residues 218-355) (human) (UniProt O00182); assay: SPR
A288S = target: T1, A288S; assay: bead assay: mutant CRD2 on streptavidin beads, G9.2-17 titrated, KD from the saturation curve, ΔΔG against wild type
T1 sequence (single chain): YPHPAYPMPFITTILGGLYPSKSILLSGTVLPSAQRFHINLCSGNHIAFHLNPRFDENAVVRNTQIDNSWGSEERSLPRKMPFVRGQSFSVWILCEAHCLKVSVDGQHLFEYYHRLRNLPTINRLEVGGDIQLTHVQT

Amino acid sequences for entries named in this document (tags omitted). Residues count along the entry.
UniProt P97840, residues 226-354: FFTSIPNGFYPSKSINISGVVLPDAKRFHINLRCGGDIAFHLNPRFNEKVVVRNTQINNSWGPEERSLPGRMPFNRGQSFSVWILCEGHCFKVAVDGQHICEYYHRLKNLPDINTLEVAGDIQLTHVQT

S208A = target: T2, S208A; assay: as above
T2 sequence (single chain): T1 sequence (single chain) with S23A, S103A

S275A = target: T3, S275A; assay: as above
T3 sequence (single chain): T1 sequence (single chain) with S90A, S103A

V289A = target: T4, V289A; assay: as above
T4 sequence (single chain): T1 sequence (single chain) with S103A, V104A

S212A = target: T5, S212A; assay: as above
T5 sequence (single chain): T1 sequence (single chain) with S27A, S103A

L210A = target: T6, L210A; assay: as above
T6 sequence (single chain): T1 sequence (single chain) with L25A, S103A

[4] = target: human Galectin-9 CRD2 (residues 218-355) (human) (UniProt O00182); assay: bead binding, flow cytometry (FIG. 14)
[5] = target: human Galectin-9 CRD2 (residues 218-355) (human) (UniProt O00182); assay: bead assay, flow cytometry: biotinylated Galectin-9 CRD2 on streptavidin beads, G9.2-17 human IgG4 titrated
[6] = target: human Galectin-9 CRD2 (residues 218-355) (human) (UniProt O00182); assay: SPR, One Step method, Pioneer; immobilized human CRD2; no measurable off rate
[7] = target: human Galectin-9 CRD2 (residues 218-355) (human) (UniProt O00182); assay: biotinylated CRD2 on streptavidin beads, antibody titrated, flow cytometry
[8] = target: human Galectin-9 CRD2 (residues 218-355) (human) (UniProt O00182); assay: biolayer interferometry, antibody on anti-Fab probes
[9] = target: cynomolgus monkey galectin-9 CRD2 (cynomolgus monkey); assay: as above
[10] = target: rat galectin-9 CRD2 (rat) (UniProt P97840); assay: as above
[11] = target: human Galectin-9 CRD2 (residues 218-355) (human) (UniProt O00182); assay: SPR, One Step method, Pioneer; immobilized human CRD2; KD below the measurable limit of assay
[12] = target: galectin-9 on the HuProt array (UniProt O00182); assay: HuProt protein array, cross-reactivity assay
[13] = target: rat galectin-9 CRD2 (rat) (UniProt P97840); assay: bead based binding, rat CRD2
[14] = target: cynomolgus monkey galectin-9 CRD2 (cynomolgus monkey); assay: bead based binding, cynomolgus CRD2
[15] = target: human Galectin-9 CRD2 (residues 218-355) (human) (UniProt O00182); assay: ELISA, antibody titrated over immobilized human CRD2
[16] = target: human Galectin-9 CRD2 (residues 218-355) (human) (UniProt O00182); assay: phage ELISA on Galectin-9 CRD2 with phage-displayed G9.2-17
[17] = target: human Galectin-9 CRD2 (residues 218-355) (human) (UniProt O00182); assay: phage ELISA
Y330E = target: T7, Y330E; assay: phage ELISA on Galectin-9 CRD2 mutants with phage-displayed G9.2-17
T7 sequence (single chain): T1 sequence (single chain) with S103A, Y113E

R253E = target: T8, R253E; assay: as above
T8 sequence (single chain): T1 sequence (single chain) with R36E, S103A

R334E = target: T9, R334E; assay: as above
T9 sequence (single chain): T1 sequence (single chain) with S103A, R117E

Y236E = target: T10, Y236E; assay: as above
T10 sequence (single chain): T1 sequence (single chain) with Y19E, S103A

R271E = target: T11, R271E; assay: as above
T11 sequence (single chain): T1 sequence (single chain) with R54E, S103A

R341E = target: T12, R341E; assay: as above
T12 sequence (single chain): T1 sequence (single chain) with S103A, R124E

Measured: binding

B1: G9.2-17 human IgG4 (antibody, V domains shown)
VH: EVQLVESGGGLVQPGGSLRLSCAASGFTVSSSSIHWVRQAPGKGLEWVAYISSSSGYTYYADSVKGRFTISADTSKNTAYLQMNSLRAEDTAVYYCARYWSYPSWWPYRGMDYWGQGTLVTVSS
VL: DIQMTQSPSSLSASVGDRVTITCRASQSVSSAVAWYQQKPGKAPKLLIYSASSLYSGVPSRFSGSRSGTDFTLTISSLQPEDFATYYCQQSSTDPITFGQGTKVEIKR
binds: [1] | [2] | [3] | A288S | S208A | S275A | V289A | S212A | L210A | [4] | [5] | [6] | [7] | [8] | [9] | [10] | [11] | [12]

B2: G9.2-17 mIgG1 (antibody, V domains shown)
VH: B1 VH
VL: B1 VL
binds: [13] | [14] | [6] | [15]

B3: G9.2-17 Fab (Fab, V domains shown)
VH: B1 VH
VL: B1 VL
binds: [16] | [17] | Y330E | R253E | R334E | Y236E | R271E | R341E

From patent publication US20220204629A1
